Laboratory results published in PubChem BioAssay AID1671190 (National Center for Advancing Translational Sciences (NCATS), 2021).
Several values for one entry are separate records, joined by “and”; a condition that tells them apart may be missing. Identical values can stand only once. Out of some 580,000 compounds screened, about 6,100 (1.1%) were called active. This list was built around the results that the source calls inconclusive (neither active nor inactive); the mix of calls is not that of the screen. The call rests on the fitted dose curve; in most records, active means well fitted inhibition curve with a large enough effect; inconclusive means small, poorly fitted or top-dose-only effect, or another doubt; inactive means no such curve, though single readings can be large or run the other way. Where the call is inconclusive, the potency comes from a doubtful curve fit.

The chains behind the UniProt entries cited, without tags or fusion partners. Where a name states a change or a piece, a line headed by the entry shows the natural chain unless it says otherwise.
UniProt P18054: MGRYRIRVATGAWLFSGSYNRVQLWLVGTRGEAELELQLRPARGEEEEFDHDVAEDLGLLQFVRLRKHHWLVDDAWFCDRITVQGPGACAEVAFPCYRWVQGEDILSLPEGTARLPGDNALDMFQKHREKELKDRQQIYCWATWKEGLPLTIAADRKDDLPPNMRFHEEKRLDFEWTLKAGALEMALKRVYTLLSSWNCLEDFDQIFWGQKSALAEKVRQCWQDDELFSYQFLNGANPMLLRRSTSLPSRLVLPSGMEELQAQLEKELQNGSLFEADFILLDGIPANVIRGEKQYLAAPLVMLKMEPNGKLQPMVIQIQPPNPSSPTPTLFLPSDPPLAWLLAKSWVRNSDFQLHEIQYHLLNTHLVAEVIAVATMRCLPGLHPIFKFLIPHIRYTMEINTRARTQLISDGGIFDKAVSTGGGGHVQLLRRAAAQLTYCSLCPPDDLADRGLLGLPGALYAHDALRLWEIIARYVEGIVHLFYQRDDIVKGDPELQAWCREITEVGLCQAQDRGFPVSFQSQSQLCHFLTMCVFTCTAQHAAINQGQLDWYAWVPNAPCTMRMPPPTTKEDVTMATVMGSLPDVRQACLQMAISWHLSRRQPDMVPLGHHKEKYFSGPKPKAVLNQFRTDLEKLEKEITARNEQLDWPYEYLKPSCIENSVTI

The compounds below were run against Polyunsaturated fatty acid lipoxygenase ALOX12 (Homo sapiens) (UniProt P18054) (assay: Primary qHTS assay for inhibitors of human arachidonate 12S-lipoxygenase (ALOX12): Round 2). Details: purified 12hLO, xylenol orange hydroperoxide absorbance; activity change, negative = inhibition: at 108 µM (top of the series) unless noted.
Summary of the method: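 Hydroperoxide product was detected by ferrous iron/xylenol orange as the 573 to 405 nm absorbance ratio. Arachidonic acid at 40 uM (final) was turned over for 30 min at room temperature by 150 nM human 12hLO, pH 7.0 Hepes buffer, after 15 min compound preincubation.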
On the % scale 0 is the no-effect control and ±100 the full control effect; potency means the concentration at half of the fitted maximal effect.

| SMILES | Potency | activity change, negative = inhibition |
| --- | --- | --- |
| O=c1cnnc(Nc2ccc(Cl)c(C(F)(F)F)c2)[nH]1 | inconclusive: 22.4 µM [inhibitor, partial curve, poor fit] |  |
| COc1ccc(C2NC(=O)NC(O)(C(F)(F)F)C2C(=O)c2ccc(F)cc2)cc1 (stereo unspecified) | inactive |  |
| CCn1c(C)cc(C(=O)CSc2nc3cc(S(N)(=O)=O)ccc3n2C)c1C | inactive |  |
| O/N=C/c1cn(-c2ccccc2)nc1-c1ccccc1 | inconclusive: 35.5 µM [inhibitor, partial curve, poor fit] |  |
| COc1ccc(-c2cccc(CCOc3cnc4c(ccn4CC(=O)O)c3)c2)c(C)c1 | inconclusive: 39.8 µM [inhibitor, full curve] |  |
| COc1ccc(NC(=O)Cn2c(C)csc2=O)c(OC)c1 | inconclusive: 35.5 µM [inhibitor, partial curve, poor fit] |  |
| CCCCCCCCOc1ccc(C(=O)c2ccccc2O)c(O)c1 | inconclusive: 22.4 µM [inhibitor, single point] |  |
| Cc1ccc2c(CN(C)Cc3cccc(F)c3)cc(=O)oc2c1C |  | inconclusive: -38.5% [inhibitor] |
| CCOc1cccc(CNCc2cccnc2)c1OCc1cccs1 | inconclusive: 7.94 µM [inhibitor, full curve, poor fit] |  |
| COc1ccc(-c2nccn3cc(C(=O)NCc4ccc(OC)c(OC)c4)nc23)cc1 | inconclusive: 8.91 µM [inhibitor, full curve, poor fit] |  |
| CCC1N=C(SC)NC(C)=C1C(=O)c1ccccc1 (stereo unspecified) | inconclusive: 44.7 µM [inhibitor, partial curve] |  |
| Cc1ccc(C(=O)NC(=S)Nc2ccccc2C(F)(F)F)cc1 | active: 7.94 µM |  |
| CCOc1cc(/C=C/c2nc3ccc(OC)cc3s2)ccc1O | inconclusive: 44.7 µM [inhibitor, partial curve, poor fit] |  |
| O=C(N/N=C/c1cn(Cc2cccc(F)c2)c2ccccc12)c1cc(O)cc(O)c1 | inconclusive: 15.8 µM [inhibitor, full curve, poor fit] |  |
| O=C(c1ccc(Br)o1)N1CCC2(CC1)CC(O)CCO2 (stereo unspecified) | inconclusive: 20 µM [inhibitor, full curve] |  |
| C[C@@H]1CCCCO[C@@H](CN(C)Cc2ccc3c(c2)OCO3)[C@@H](C)CN([C@H](C)CO)C(=O)c2cc(NS(=O)(=O)c3ccccc3)ccc2O1 | inactive |  |
| O=C(CCN1C(=O)/C(=C/c2ccccc2)SC1=S)N1CCCCCC1 | inactive |  |
| CC1(C)C(=O)Nc2ccccc2N1C(=O)COC(=O)c1cc(S(C)(=O)=O)ccc1Cl | inactive |  |
| Cc1ccc(-n2c(=S)[nH]c3c(oc4ccccc43)c2=O)cc1 | inactive |  |
| COc1ccc(C(=O)COC(=O)c2cc(=O)c3ccccc3o2)cc1 | inconclusive: 3.16 µM [inhibitor, full curve, poor fit] |  |
| CC(=O)Nc1ccc(CNC(=O)c2nccnc2N)cc1 | inconclusive: 141 µM [inhibitor, single point] |  |
| COc1cc(NC(=O)C2CCN(S(=O)(=O)c3c(C)noc3/C=C/c3cccs3)CC2)cc(OC)c1 | inconclusive: 3.98 µM [inhibitor, full curve, poor fit] |  |

| SMILES | Potency | activity change, negative = inhibition |
| --- | --- | --- |
| CC1(Oc2ccc(Cl)cc2)CCN(Cc2ccc(OC(F)(F)F)cc2)C1 (stereo unspecified) | inconclusive: 63.1 µM [inhibitor, partial curve, poor fit] |  |
| O=C1CCC(/C=C/c2ccccc2)=NN1 | inconclusive: 44.7 µM [inhibitor, partial curve, poor fit] |  |
| COc1ccc(-c2nc(SCC(=O)c3ccc(Br)cc3)n[nH]2)cc1 | inconclusive: 112 µM [inhibitor, partial curve, poor fit] |  |
| COCCNc1nc(-c2ccc(N(C)C)cc2)nc2ccccc12 | inconclusive: 31.6 µM [inhibitor, full curve, poor fit] |  |
| CCCc1cc(=O)oc2c(CN3CCN(C)CC3)c(O)c(Cl)cc12 | inconclusive: 56.2 µM [inhibitor, partial curve, poor fit] |  |
| Cc1ccc(S(=O)(=O)NCC(=O)OCC(=O)N(Cc2ccccc2)C(C)(C)C)cc1 | inconclusive: 100 µM [inhibitor, single point] |  |
| Cc1ccc(NC(=O)Cc2c(C)nc3nc(-c4cccs4)nn3c2C)c(C)c1 | inconclusive: 126 µM [inhibitor, single point] |  |
| Cn1c(-n2cccc2)c(-c2c(-c3cccc4ccccc34)[nH]c3c2c(=O)[nH]c(=O)n3C)c(=O)[nH]c1=O | active: 17.8 µM |  |
| COc1cc2[nH]c(=S)nc(NCc3ccccc3)c2cc1OC | inconclusive: 100 µM [inhibitor, single point] |  |
| NS(=O)(=O)c1ccc(NC(=O)Cc2cccs2)cc1 | inactive |  |
| COC(=O)NC(NC(=S)Nc1ccc([N+](=O)[O-])cc1)C(Cl)(Cl)Cl (stereo unspecified) | inconclusive: 25.1 µM [inhibitor, partial curve, poor fit] |  |
| O=C1CC(N2CCN(c3ccccc3)CC2)C(=O)N1Cc1ccc(Cl)cc1 (stereo unspecified) | inconclusive: 50.1 µM [inhibitor, partial curve, poor fit] |  |
| COC[C@@H]1CN(Cc2ccc(C)o2)C[C@H]1C(=O)N(C)C | inconclusive: 35.5 µM [inhibitor, partial curve, poor fit] |  |
| Cc1ccc(C)c(S(=O)(=O)Nc2cc3c4c(c2)CCN4C(=O)CC3)c1 | inconclusive: 79.4 µM [inhibitor, partial curve, poor fit] |  |
| COc1ccccc1-c1nc2c(c(SCC(=O)Nc3ccccc3F)n1)Cc1c(CO)cnc(C)c1O2 | inconclusive: 56.2 µM [inhibitor, partial curve, poor fit] |  |
| CCc1ccc(-c2cc3c(=O)n(CC(=O)NCCCN4CCC(Cc5ccccc5)CC4)nc(C)n3n2)cc1 | inactive |  |
| CC(=O)C1=C(O)C(=O)N(CCC(=O)O)C1c1ccc(Cl)cc1Cl (stereo unspecified) | inconclusive: 7.94 µM [inhibitor, full curve, poor fit] |  |
| O=C(NCc1cccs1)c1nc(-c2ccc(Cl)cc2Cl)c2ccccn12 | inconclusive: 7.08 µM [inhibitor, full curve, poor fit] |  |
| CC1(OC(=O)C2CCCC2)C(=O)C=C2C=C(c3ccc(C#N)cc3)OC=C2C1=O (stereo unspecified) | active: 10 µM |  |
| CC(C)C(=O)NC(C)C(=O)N1CCN(c2ccccn2)CC1 (stereo unspecified) | inactive |  |
| C=CCn1c(SCC(=O)N2CCOCC2)nnc1C(C)NC(=O)c1ccccc1 (stereo unspecified) | inactive |  |
| C=CCC1(NCc2ccco2)CCN(CC)CC1 | inconclusive: 0.398 µM [inhibitor, full curve] |  |

| SMILES | Potency | activity change, negative = inhibition |
| --- | --- | --- |
| CN(CC(=O)Nc1ccc(Cl)c(C(F)(F)F)c1)C(=O)c1cn2ccccc2n1 | inconclusive: 126 µM [inhibitor, partial curve, poor fit] |  |
| COc1ccc(OC2CCN(C(C)=O)CC2)c(C(=O)NCCc2c(C)n[nH]c2C)c1 | inconclusive: 3.55 µM [inhibitor, full curve, poor fit] |  |
| CCOC(=O)NC(CNC(=O)c1cccc(OC)c1)CC(C)C (stereo unspecified) | inactive |  |
| COc1ccc(C(C(=O)NCC2CCCO2)N(C(=O)Cn2nnc3ccccc32)c2ccc(NC(C)=O)cc2)cc1OC (stereo unspecified) | inconclusive: 50.1 µM [inhibitor, partial curve, poor fit] |  |
| COc1cccc(C2=C(C(C)=O)Sc3nnc(-c4ccc(Cl)cc4)n3N2C(C)=O)c1 | inactive |  |
| O=C(NCc1ccc(C(F)(F)F)cc1)C1CN(c2cccc(Cl)c2)C(=O)N1 (stereo unspecified) | inconclusive: 15.8 µM [inhibitor, full curve] |  |
| CN=c1scc(C)n1/N=C/c1ccc(O)c(O)c1O | inactive |  |
| CCOC(=O)N1CCc2c(sc(NC(=O)Cc3ccccc3)c2C(=O)c2ccc(OC)cc2)C1 | inconclusive: 31.6 µM [inhibitor, partial curve, poor fit] |  |
| COc1ccc(C2CC(c3cccs3)=NN2C(=O)CCl)cc1OC (stereo unspecified) | inconclusive: 31.6 µM [inhibitor, partial curve, poor fit] |  |
| Cc1cc(CN2C[C@@H](COCC3CC3)[C@H](c3ccccn3)C2)n(C)n1 | inactive |  |
| CC1CCN(C(=O)c2ccc(N3C(=O)C4CCC(C)CC4C3=O)cc2)CC1 (stereo unspecified) | inactive |  |
| CCN1CCN(CCCNC(=O)Cn2c(-c3cccs3)cc3ccccc32)CC1 | inactive |  |
| O=C(Nc1n[nH]c(=S)s1)c1ccco1 | inconclusive: 35.5 µM [inhibitor, partial curve, poor fit] |  |
| O=C(O)CCC1CCCN(S(=O)(=O)c2cccc(F)c2)C1 (stereo unspecified) | inactive |  |
| COc1cccc(Nc2ncc3nc(-c4cn(C)c5ccccc45)c(=O)n(C[C@H]4CCCO4)c3n2)c1 | inconclusive: 44.7 µM [inhibitor, partial curve, poor fit] |  |
| CCOc1ccc(CCNC(=O)CS(=O)(=O)Cc2nc(-c3cccc(Cl)c3)oc2C)cc1 | inconclusive: 89.1 µM [inhibitor, partial curve, poor fit] and inconclusive: 35.5 µM [inhibitor, partial curve, poor fit] |  |
| Cc1csc(NC(=O)c2nc3c(o2)CCN(Cc2ccc4[nH]ccc4c2)CC3)n1 | inactive |  |
| COc1ccc(-c2noc(C3CCCN(C(=O)c4ccccc4)C3)n2)cc1 (stereo unspecified) | inactive |  |
| CCOc1ccc(C2CCCN2C(=O)c2ccc(-n3cccn3)cc2)cc1 (stereo unspecified) | inconclusive: 39.8 µM [inhibitor, full curve, poor fit] |  |
| CCNc1nc(NCC)nc(N(C)/N=C/c2ccco2)n1 | inactive |  |
| CC(C)C(C)(C#N)NC(=O)COc1ccc2ccc(=O)oc2c1 (stereo unspecified) | inactive |  |
| COc1ccc(CNc2nc3nc(C)c(Cl)c(=O)n3[nH]2)cc1OC | inconclusive: 141 µM [inhibitor, single point] |  |
